Taken from: PubChem BioAssay AID1259254 (NCATS, 2017)
Purpose: 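Gene knock-downs that lead to re-replication, shown by excess G2 DNA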 (primary screen). Cells: human HCT116 colorectal cancer cells. Knock-down reagent: single siRNA against human genes. Duration: 3 days. Detection: 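Imaged Hoechst DNA stain sorts each cell into a cycle phase by DNA amount; per plate, G2 fraction set to 0% for non-targeting and 100% for GMNN siRNA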. Reading the numbers: G2 robust z-score: higher = more G2 cells, more excess DNA replication. Hit rule: 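An siRNA counts as active if its G2 robust z-score lies at least 5 MADs above the screen median; here such calls match roughly 38% of GMNN control or more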.
Shown is one part, drawn at random, of about 59,000 deposited reagents. In the full data, about 1,550 (2.6%) are marked active. 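G2 share is only a proxy for re-replication; each gene was hit by three separate siRNAs, and active genes were retested.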 Reagents against one gene are numbered here. Not all columns of the deposit are shown. The record does not give: the amount of reagent.

Gene	reagent no.	G2 robust z-score	Outcome
GTF2E2	1	0.0704	inactive
GTF2E2	2	-0.177	inactive
GTF2E2	3	-0.27	inactive
NDUFC2	1	-0.699	inactive
NDUFC2	2	1.24	inactive
NDUFC2	3	1.05	inactive
GREM1	1	0.368	inactive
GREM1	2	0.0787	inactive
GREM1	3	-0.358	inactive
CTXN3	1	-0.591	inactive
CTXN3	2	-0.993	inactive
CTXN3	3	-0.544	inactive
ZBTB41	1	-0.296	inactive
ZBTB41	2	1.21	inactive
ZBTB41	3	0.422	inactive
C2orf42	1	1.47	inactive
C2orf42	2	-0.0672	inactive
C2orf42	3	-0.854	inactive
MCM3AP	1	-0.0251	inactive
MCM3AP	2	0.815	inactive
MCM3AP	3	0.711	inactive
FNDC4	1	0.371	inactive
FNDC4	2	-0.426	inactive
FNDC4	3	-0.311	inactive
TMEM59L	1	-1	inactive
TMEM59L	2	0.31	inactive
TMEM59L	3	-0.912	inactive
H2BW2	1	0.83	inactive
H2BW2	2	0.773	inactive
H2BW2	3	0.419	inactive
KAT2A	1	0.316	inactive
KAT2A	2	1.59	inactive
KAT2A	3	-1.3	inactive
DTD2	1	-0.595	inactive
DTD2	2	2.07	inactive
DTD2	3	-0.504	inactive
TMEM208	1	2.55	inactive
TMEM208	2	-0.517	inactive
TMEM208	3	7.54	active
GUSBP1	1	-0.683	inactive
GUSBP1	2	1.11	inactive
GUSBP1	3	1.46	inactive
MED25	1	3.2	inactive
MED25	2	-0.357	inactive
MED25	3	0.365	inactive
MAPDA	1	0.578	inactive
MAPDA	2	-1.15	inactive
MAPDA	3	0.113	inactive
OGDHL	1	1.27	inactive
OGDHL	2	-0.818	inactive
OGDHL	3	0.00988	inactive
APCDD1L-DT	1	-0.232	inactive
APCDD1L-DT	2	0.442	inactive
APCDD1L-DT	3	1.36	inactive
CNOT1	1	-1.32	inactive
CNOT1	2	-1.22	inactive
CNOT1	3	-0.957	inactive
TDRD3	1	0.0977	inactive
TDRD3	2	1.99	inactive
TDRD3	3	0.223	inactive
SYNRG	1	-1.19	inactive
SYNRG	2	2.77	inactive
SYNRG	3	-0.18	inactive
PCDHGB7	1	-0.617	inactive
PCDHGB7	2	-0.665	inactive
PCDHGB7	3	1.75	inactive
MPHOSPH10	1	2.8	inactive
MPHOSPH10	2	0.719	inactive
MPHOSPH10	3	1.51	inactive
